Source: PubChem BioAssay AID1439 (NMMLSC, 2008)
Among all 220,000 compounds or so, about 770 (0.35%) were called active. This list was built around the results that the source calls inconclusive (neither active nor inactive); the mix of calls is not that of the screen. Cut-off read from the data, not from the text of the source: active = binding response below about 49% or above about 150%; inconclusive = no clear call, values can overlap the other calls; inactive = in between.

Amino acid sequences for entries named in this document (tags omitted).
UniProt P09471, whole entry, looked up: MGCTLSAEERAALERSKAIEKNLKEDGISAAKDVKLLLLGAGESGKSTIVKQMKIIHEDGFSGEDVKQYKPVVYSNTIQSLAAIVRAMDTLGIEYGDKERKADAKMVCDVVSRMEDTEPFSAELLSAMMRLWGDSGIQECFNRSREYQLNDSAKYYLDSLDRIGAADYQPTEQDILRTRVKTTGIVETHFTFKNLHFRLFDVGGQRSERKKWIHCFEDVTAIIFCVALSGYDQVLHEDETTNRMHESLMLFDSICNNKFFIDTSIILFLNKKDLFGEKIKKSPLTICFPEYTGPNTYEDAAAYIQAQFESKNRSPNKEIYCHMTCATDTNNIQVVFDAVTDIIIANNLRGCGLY

These compounds were tested against Guanine nucleotide-binding protein G(o) subunit alpha (Homo sapiens) (UniProt P09471) (assay: RGS7-Galphao binding modulators, primary screen, biochemical, multiplexed bead flow cytometry (AID 1439;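 note: fluorescent Galphao held in activated GDP-AlF4 state binding bead-coupled RGS7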)). Settings: at 10 µM, actives lie on both sides.
For `N#C/C(=C\c1cc(O)c(O)c(O)c1)C(N)=O`, the binding response (% of control) was inconclusive: 308%. With `CS(=O)(=O)N1CCC(Oc2ccccc2C(=O)N2CCN(CC3CC3)CC2)CC1` the binding response (% of control) was inactive: 100%. In the case of `Cc1nc(NC(=O)c2cccc(Cl)c2)sc1C(=O)N1CCCCC1`, the binding response (% of control) is reported as inactive: 91.4%. `CC1CCN(CCC(=O)Nc2ccc3c(c2)OCCO3)CC1` was tested, and the binding response (% of control) was inconclusive: 97.9%. With `C#CC(C)OC(=O)C(C)NC(=O)c1ccccc1` (stereo unspecified) the binding response (% of control) was inconclusive: 78%. In the case of `N#Cc1nc(-c2ccccc2F)oc1NCCN1CCOCC1`, the binding response (% of control) is reported as inactive: 134%. For `C=C1CCN([C@H](C(=O)NCc2ccco2)C(C)C)S(=O)(=O)c2ccccc21`, the binding response (% of control) was inconclusive: 114%. For `O=[N+]([O-])c1cc(C(F)(F)F)ccc1NCCCN1CCOCC1`, the binding response (% of control) was inconclusive: 89.4%. For `COc1ccnc(-n2cccc2/C=N/O)c1C#N`, the binding response (% of control) was inactive: 117%. With `CC(=O)N(C)c1ccc(NC(=S)NCC(C)C)cc1` the binding response (% of control) was inactive: 97.1%. In the case of `CCN(c1ccc(NC(=O)COC(=O)CCc2cc(OC)c(OC)c(OC)c2)cc1)C(C)C`, the binding response (% of control) is reported as inactive: 99.7%. In the case of `COc1ccc(CNC(=O)CCN2C(=S)NC(C)(C)CC2C)cc1` (stereo unspecified), the binding response (% of control) is reported as inconclusive: 106%. In the case of `CCS(=O)(=O)c1ccc2oc(Nc3ccccc3Br)nc2c1`, the binding response (% of control) is reported as inconclusive: 147%. `COC(CNC(=O)c1cccc(-n2c(=S)[nH]c3cc(Cl)ccc3c2=O)c1)OC` was tested, and the binding response (% of control) was inactive: 97.2%. `CCOC(=O)N[C@H](Cc1c[nH]c2ccccc12)C(=O)NC1CC1` was tested, and the binding response (% of control) was inconclusive: 113%. With `COc1ccc(COC(=O)c2ccc3c(=O)n4c(nc3c2)CCC4)cc1F` the binding response (% of control) was inconclusive: 78.3%. For `O=[N+]([O-])c1ccc(Sc2n[nH]c(-c3ccco3)n2)nc1`, the binding response (% of control) was inactive: 105%. In the case of `Cc1ccc(NC(=O)Nc2ccno2)cc1`, the binding response (% of control) is reported as inconclusive: 58.8%. `N#C/C(=C(/O)c1ccc([N+](=O)[O-])o1)c1nc2ccccc2[nH]1` was tested, and the binding response (% of control) was inconclusive: 102%. In the case of `Cc1ccc(C(=O)NC(=S)Nc2ccc(CN3CCCCC3)cc2)c(C)c1`, the binding response (% of control) is reported as inconclusive: 105%. `CCOC(=O)c1nc(C)nc(Sc2n[nH]c(-c3ccc(C(C)(C)C)cc3)n2)c1C` was tested, and the binding response (% of control) was inconclusive: 71.9%. With `CC1=CC(=O)CC(C)(C)C1(O)/C=C/C(C)=C/C(=O)O` (stereo unspecified) the binding response (% of control) was inconclusive: 106%. `CCOc1ccc(CN(C)CC(=O)Nc2cccc3ccccc23)cc1OC` was tested, and the binding response (% of control) was inconclusive: 101%. `O=Cc1ccnc(-c2ccc(OC(=O)c3ccco3)cc2)n1` was tested, and the binding response (% of control) was inconclusive: 107%. For `O=S(=O)(c1cnc(Cl)c(Br)c1)N1CCN(c2ncccn2)CC1`, the binding response (% of control) was inconclusive: 115%. For `CCCCC(=O)N(Cc1ccc(F)cc1)C1CCS(=O)(=O)C1` (stereo unspecified), the binding response (% of control) was inconclusive: 94.6%. For `CN1CCN(Cc2cc(=O)oc3ccc(Cl)cc23)CC1`, the binding response (% of control) was inactive: 103%. In the case of `Cn1cccc1/C=C1\SC(=Nc2ccccc2)NC1=O`, the binding response (% of control) is reported as inconclusive: 166%. With `O=c1[nH]c2ccccc2nc1CCc1ccccc1` the binding response (% of control) was inconclusive: 106%. With `Cc1ccccc1-c1cnn(-c2cccc([N+](=O)[O-])c2)c1N` the binding response (% of control) was inconclusive: 105%. `O=C(CN1CCN(S(=O)(=O)c2ccccc2)CC1)NC(=O)NCc1ccco1` was tested, and the binding response (% of control) was inconclusive: 103%. For `O=C(CSc1ccc2nnc(CCNC(=O)c3ccccc3)n2n1)Nc1ccccc1F`, the binding response (% of control) was inconclusive: 88.9%. For `O=C1CCC/C(=N\NC(=O)COc2ccc(Cl)cc2)C1`, the binding response (% of control) was inconclusive: 108%. `O=C(c1cc2cc([N+](=O)[O-])ccc2s1)N1CCOCC1` was tested, and the binding response (% of control) was inactive: 111%. With `O=C1c2cccc3c(O)ccc(c23)C(=O)N1Cc1ccccc1` the binding response (% of control) was active: 164% [activator]. In the case of `Cc1cc(-c2n[nH]c(=S)n2/N=C/C=C/c2ccco2)n[nH]1`, the binding response (% of control) is reported as inconclusive: 96.1%. In the case of `CCOC(=O)NNc1ccccc1`, the binding response (% of control) is reported as inconclusive: 171%. `c1ccc2c(c1)OCc1cn[nH]c1-2` was tested, and the binding response (% of control) was inconclusive: 110%. In the case of `CCOC(=O)C(=CNNc1ccccc1)C(=O)OCC`, the binding response (% of control) is reported as inconclusive: 82.2%. In the case of `CCOC(=O)N1CCC(NC(=O)C2=CCN(S(=O)(=O)c3ccc(F)cc3)CC2)CC1`, the binding response (% of control) is reported as inconclusive: 99.3%. In the case of `O=C(COC(=O)/C=C/c1ccc([N+](=O)[O-])cc1)NCc1ccco1`, the binding response (% of control) is reported as inconclusive: 38.3%. With `Cc1ccc(NC(=O)c2cc([N+](=O)[O-])ccc2N2CCOCC2)cc1S(=O)(=O)N(C)C` the binding response (% of control) was inconclusive: 76.4%. With `COc1cc(CC(=O)OCC(=O)Nc2ccc(Cl)c(S(=O)(=O)N(C)C)c2)cc(OC)c1OC` the binding response (% of control) was inconclusive: 90.6%. For `COc1ccc(C2OCC3(O)C(c4ccc(OC)c(OC)c4)OCC23)cc1OC` (stereo unspecified), the binding response (% of control) was inconclusive: 121%. In the case of `NC(=O)c1cnn2c(-c3cccc(C(F)(F)F)c3)ccnc12`, the binding response (% of control) is reported as inconclusive: 101%. With `N#Cc1nccnc1N1CCN(C(=O)Nc2ccccc2)CC1` the binding response (% of control) was inconclusive: 153%. With `CCOc1ccc(Br)cc1S(=O)(=O)NCc1ccc(S(N)(=O)=O)cc1` the binding response (% of control) was inconclusive: 89.6%. For `CCOc1cccc2sc(=NC(=O)c3ccco3)n(CC(=O)OC)c12`, the binding response (% of control) was inconclusive: 167%. `CN(C)CCCn1c(=O)n(Cc2ccco2)c(=O)c2c3c(sc21)CCCCC3` was tested, and the binding response (% of control) was inconclusive: 54.8%. With `CCOCC(=O)Nc1ncc(S(=O)(=O)c2ccc([N+](=O)[O-])cc2)s1` the binding response (% of control) was inconclusive: 107%. With `COC(=O)C1CCN(C(=O)c2cc3c(=O)n4cccc(C)c4nc3n2Cc2ccccc2)CC1` the binding response (% of control) was inconclusive: 17.6%. `O=C(OCC(=O)N1CCN(C(=O)c2ccco2)CC1)c1ccccc1` was tested, and the binding response (% of control) was inconclusive: 91.4%. In the case of `COc1ccc(S(=O)(=O)N2CCOCC2)cc1NC(=O)c1ccc(-n2nc(C)cc2C)cc1`, the binding response (% of control) is reported as inconclusive: 103%. With `CCOC(=O)c1sc(=S)n(-c2ccccc2Cl)c1C` the binding response (% of control) was inconclusive: -59.4%. `Cc1n[nH]c(C)c1Cc1c(F)cccc1Cl` was tested, and the binding response (% of control) was inconclusive: 98.8%. `CN(c1ccccc1)S(=O)(=O)c1ccc(C(=O)OCC(=O)NCc2cccs2)cc1` was tested, and the binding response (% of control) was inconclusive: 145%. For `O=C1CCCN1c1ccc(S(=O)(=O)Oc2ccc(Cl)cc2)cc1[N+](=O)[O-]`, the binding response (% of control) was inactive: 102%. In the case of `CC(C)(C)OC(=O)NCCCC[C@H](NC(=O)c1nc[nH]c1C(=O)N[C@@H](CCCCNC(=O)OC(C)(C)C)C(=O)OC(C)(C)C)C(=O)OC(C)(C)C`, the binding response (% of control) is reported as inconclusive: 107%. With `CCOC(=O)C1=C(C)NC(C)=C(C(=O)OCC)C1C` the binding response (% of control) was inconclusive: 97.8%. For `COc1ccc(-c2n[nH]c(=S)n2-c2cc(OC)ccc2OC)cc1`, the binding response (% of control) was inconclusive: 96.6%. For `CCOc1ccc(NC(=O)N[C@@H](Cc2ccccc2)C(=O)O)cc1`, the binding response (% of control) was inconclusive: 101%. In the case of `O=C(OCC(=O)N1CCc2ccccc21)c1cncc(Br)c1`, the binding response (% of control) is reported as inconclusive: 112%. `Cc1oc(-c2cccs2)nc1CN1CCC(c2ccccc2)CC1` was tested, and the binding response (% of control) was inactive: 109%. With `CC(=O)N1N=C(c2ccc(Br)cc2)OC12CCCC2` the binding response (% of control) was inconclusive: 56.4%. For `NC(N)=N/N=C/c1ccc(Cl)cc1Cl`, the binding response (% of control) was inconclusive: 104%. With `OC(CNC1CCCC1)COCCOc1ccc(Br)cc1` (stereo unspecified) the binding response (% of control) was inconclusive: 85.1%. With `O=C(NCCNCc1cccs1)c1ccccc1F` the binding response (% of control) was inconclusive: 107%. With `COC(=O)c1cc(OC)nc2ccc(Br)cc12` the binding response (% of control) was inconclusive: 106%. For `CCOC(=O)c1sc(NNC(=O)c2ccc(C)cc2)nc1C`, the binding response (% of control) was inconclusive: 101%. With `O=C(NNC(=O)c1cc2cc(OC(F)(F)F)ccc2[nH]1)c1ccc(Cl)cc1` the binding response (% of control) was inconclusive: 22.1%. In the case of `COc1ccc(/C=N/NC(=O)c2ccncc2)cc1Cn1nc([N+](=O)[O-])c(Br)c1C`, the binding response (% of control) is reported as inactive: 100%. With `OCCNCc1cc(Br)ccc1OCc1ccc(F)cc1` the binding response (% of control) was inconclusive: 105%. `CNC(=O)COC(=O)c1ccccc1Nc1ccccc1` was tested, and the binding response (% of control) was inconclusive: 104%. `COc1ccccc1-n1c(SCC(=O)O)nc2sc3c(c2c1=O)CCC3` was tested, and the binding response (% of control) was inconclusive: 96.1%. `Cc1nc(-c2ccccc2)c(Cc2ccccc2O)c(=O)[nH]1` was tested, and the binding response (% of control) was inconclusive: 105%. In the case of `COC(=O)c1sc(C(C)(C)C)cc1CS(=O)(=O)c1ccccn1`, the binding response (% of control) is reported as inconclusive: 75.4%. In the case of `COc1ccc(C(=O)N/N=C(\C)CC(=O)Nc2ccc(Cl)cn2)cc1`, the binding response (% of control) is reported as inconclusive: 85.7%. With `CN(C)C(=O)C1CCC(=O)N1Cc1cccs1` (stereo unspecified) the binding response (% of control) was inactive: 106%. `CC1(C)Cc2ccccc2-c2nc(NCCCO)[nH]c(=O)c21` was tested, and the binding response (% of control) was inconclusive: 127%. For `COC(=O)c1cc(-c2ccc(S(=O)(=O)N3CCCCC3)cc2)c(C(F)(F)F)s1`, the binding response (% of control) was inconclusive: 203%. In the case of `O=C(CCN1C(=O)/C(=C/c2ccccc2Cl)SC1=S)NNC(=O)c1cccnc1`, the binding response (% of control) is reported as inconclusive: 416%. In the case of `COc1ccc(/C=C/C(=O)Oc2cccc(/C=N/NC(=O)Cc3ccc(Br)cc3)c2)cc1`, the binding response (% of control) is reported as inconclusive: 88.5%. With `O=C(NCCSCc1ccc(Cl)cc1Cl)c1ccc(CN2CCOCC2)cc1` the binding response (% of control) was active: -2.04%. `O=C(NC(=S)NC1CCCc2ccccc21)c1ccco1` (stereo unspecified) was tested, and the binding response (% of control) was inconclusive: 98.2%. With `COc1ccc(CC(NC(C)=O)C(=O)NC2CCN(c3ncccc3[N+](=O)[O-])CC2)cc1` (stereo unspecified) the binding response (% of control) was inconclusive: 108%. With `Cc1ccccc1CS(=O)(=O)CC1(O)CCN(C(=O)c2cccc(C(F)(F)F)c2)CC1` the binding response (% of control) was active: 157% [activator]. In the case of `COc1cc(/C=N/NC(=S)Nc2cccnc2)cc(OC)c1O`, the binding response (% of control) is reported as inconclusive: 94.2%. For `O=C(NCCCn1ccnc1)C(=O)NCC1OCCN1S(=O)(=O)c1cc(F)ccc1F` (stereo unspecified), the binding response (% of control) was inconclusive: 114%. `O=C(CC(C(=O)N1CCc2ccccc21)n1ccnc1)NCc1ccccc1` (stereo unspecified) was tested, and the binding response (% of control) was inactive: 113%. In the case of `O=C(CN1CCCc2ccccc21)N/N=C/c1ccc(F)cc1F`, the binding response (% of control) is reported as inconclusive: 103%. With `O=C(CN1C(=O)C2C3CC(C(Br)C3Br)C2C1=O)OCC(=O)c1cccc([N+](=O)[O-])c1` (stereo unspecified) the binding response (% of control) was inconclusive: 93.5%.
